Measurements published in paper PMC9667586.

The chains behind the UniProt entries cited, without tags or fusion partners.
UniProt Q16643: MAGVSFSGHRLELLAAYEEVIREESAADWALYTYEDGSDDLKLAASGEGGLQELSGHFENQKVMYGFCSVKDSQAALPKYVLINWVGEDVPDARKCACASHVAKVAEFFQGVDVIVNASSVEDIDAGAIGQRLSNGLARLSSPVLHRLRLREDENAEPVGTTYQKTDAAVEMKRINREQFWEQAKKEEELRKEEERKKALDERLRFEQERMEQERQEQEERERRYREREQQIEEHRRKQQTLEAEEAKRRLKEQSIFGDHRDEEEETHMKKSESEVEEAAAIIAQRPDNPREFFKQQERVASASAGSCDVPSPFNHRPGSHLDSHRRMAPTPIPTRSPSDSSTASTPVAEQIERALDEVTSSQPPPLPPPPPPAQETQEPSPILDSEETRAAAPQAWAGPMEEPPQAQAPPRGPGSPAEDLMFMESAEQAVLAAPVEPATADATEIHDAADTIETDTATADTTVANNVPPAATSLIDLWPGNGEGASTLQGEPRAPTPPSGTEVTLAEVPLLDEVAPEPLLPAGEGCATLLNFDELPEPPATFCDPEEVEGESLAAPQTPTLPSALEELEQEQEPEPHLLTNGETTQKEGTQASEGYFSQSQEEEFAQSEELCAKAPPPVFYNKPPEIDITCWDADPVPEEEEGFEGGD
UniProt Q16666: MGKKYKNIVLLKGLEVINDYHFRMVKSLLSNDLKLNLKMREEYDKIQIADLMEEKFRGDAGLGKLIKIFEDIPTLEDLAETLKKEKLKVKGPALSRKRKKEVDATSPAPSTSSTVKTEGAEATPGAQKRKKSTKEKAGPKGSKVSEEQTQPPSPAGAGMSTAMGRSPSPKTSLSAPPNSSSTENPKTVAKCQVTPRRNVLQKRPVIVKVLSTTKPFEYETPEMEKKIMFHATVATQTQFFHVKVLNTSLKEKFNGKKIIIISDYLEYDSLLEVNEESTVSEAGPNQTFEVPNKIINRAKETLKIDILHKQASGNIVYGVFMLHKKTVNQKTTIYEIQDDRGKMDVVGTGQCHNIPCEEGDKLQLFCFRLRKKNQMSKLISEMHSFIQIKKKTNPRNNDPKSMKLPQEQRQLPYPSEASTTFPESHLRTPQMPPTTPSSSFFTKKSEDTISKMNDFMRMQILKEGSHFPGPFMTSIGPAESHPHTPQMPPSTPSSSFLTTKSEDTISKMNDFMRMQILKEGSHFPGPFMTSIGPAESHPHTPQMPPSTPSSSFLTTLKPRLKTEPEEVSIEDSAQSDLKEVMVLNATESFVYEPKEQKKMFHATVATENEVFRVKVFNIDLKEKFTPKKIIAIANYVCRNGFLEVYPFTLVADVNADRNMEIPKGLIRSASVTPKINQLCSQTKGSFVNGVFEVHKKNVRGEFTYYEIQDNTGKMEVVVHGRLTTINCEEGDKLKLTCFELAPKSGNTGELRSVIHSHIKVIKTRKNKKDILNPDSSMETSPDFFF

Each substance was assayed against Actin related protein 2/3 complex, subunit 1B (human (endogenous in GSC 267 and GSC 20)) (UniProt O15143) (assay: affinity purification with mass spectrometry; IP with ARPC1B antibody from GSC 267 cells, IgG control; SDS-PAGE, silver staining, mass spectrometry).

binding, binds:
DBN1 (from UniProt Q16643 1-649), γ-interferon inducible protein 16 (from UniProt Q16666 1-785), CORO1C (from UniProt Q9ULV4 1-474), Human antigen R (from UniProt Q15717 1-326)

No constants are given. Whether binding was seen depends on the method and setting. In cells and extracts the contact can be indirect. These calls come from enrichment with a bait or labelling near it, and not all partners need be listed.
